In publication PMC6048049:
No constants are given. Whether binding was seen depends on the method and setting. In cells and extracts the contact can be indirect. Some results given as binding are weak or reduced against the parent protein; the word gives no strength.

By UniProt entry, the sequences of proteins in these tests, tags left out. Residues count along the entry.
UniProt Q05397: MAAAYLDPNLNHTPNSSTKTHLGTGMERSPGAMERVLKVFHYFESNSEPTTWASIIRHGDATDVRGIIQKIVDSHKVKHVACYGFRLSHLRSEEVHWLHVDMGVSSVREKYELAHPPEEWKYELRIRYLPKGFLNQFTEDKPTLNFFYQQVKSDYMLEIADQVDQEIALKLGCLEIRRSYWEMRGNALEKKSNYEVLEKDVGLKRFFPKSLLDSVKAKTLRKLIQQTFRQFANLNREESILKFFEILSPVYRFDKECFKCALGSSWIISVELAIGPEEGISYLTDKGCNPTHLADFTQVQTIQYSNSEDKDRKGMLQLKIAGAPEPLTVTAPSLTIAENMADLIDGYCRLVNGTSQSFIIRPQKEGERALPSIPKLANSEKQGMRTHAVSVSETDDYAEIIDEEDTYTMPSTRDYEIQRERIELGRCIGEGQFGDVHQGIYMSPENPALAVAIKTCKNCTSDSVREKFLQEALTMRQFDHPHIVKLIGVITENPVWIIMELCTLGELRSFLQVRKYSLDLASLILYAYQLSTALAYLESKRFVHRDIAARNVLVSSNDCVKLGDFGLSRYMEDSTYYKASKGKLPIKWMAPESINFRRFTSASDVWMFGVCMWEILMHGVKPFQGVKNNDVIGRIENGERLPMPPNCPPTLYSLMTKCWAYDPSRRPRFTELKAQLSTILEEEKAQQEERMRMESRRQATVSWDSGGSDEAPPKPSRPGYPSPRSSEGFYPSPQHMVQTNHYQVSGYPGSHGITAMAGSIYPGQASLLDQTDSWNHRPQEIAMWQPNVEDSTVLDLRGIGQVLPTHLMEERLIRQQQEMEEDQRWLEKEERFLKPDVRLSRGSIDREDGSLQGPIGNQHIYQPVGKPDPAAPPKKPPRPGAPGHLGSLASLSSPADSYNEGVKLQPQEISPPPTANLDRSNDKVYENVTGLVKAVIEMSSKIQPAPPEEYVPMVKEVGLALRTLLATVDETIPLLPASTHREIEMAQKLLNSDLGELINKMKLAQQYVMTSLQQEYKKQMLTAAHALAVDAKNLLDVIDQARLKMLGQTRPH
UniProt P08069, residues 741-1367: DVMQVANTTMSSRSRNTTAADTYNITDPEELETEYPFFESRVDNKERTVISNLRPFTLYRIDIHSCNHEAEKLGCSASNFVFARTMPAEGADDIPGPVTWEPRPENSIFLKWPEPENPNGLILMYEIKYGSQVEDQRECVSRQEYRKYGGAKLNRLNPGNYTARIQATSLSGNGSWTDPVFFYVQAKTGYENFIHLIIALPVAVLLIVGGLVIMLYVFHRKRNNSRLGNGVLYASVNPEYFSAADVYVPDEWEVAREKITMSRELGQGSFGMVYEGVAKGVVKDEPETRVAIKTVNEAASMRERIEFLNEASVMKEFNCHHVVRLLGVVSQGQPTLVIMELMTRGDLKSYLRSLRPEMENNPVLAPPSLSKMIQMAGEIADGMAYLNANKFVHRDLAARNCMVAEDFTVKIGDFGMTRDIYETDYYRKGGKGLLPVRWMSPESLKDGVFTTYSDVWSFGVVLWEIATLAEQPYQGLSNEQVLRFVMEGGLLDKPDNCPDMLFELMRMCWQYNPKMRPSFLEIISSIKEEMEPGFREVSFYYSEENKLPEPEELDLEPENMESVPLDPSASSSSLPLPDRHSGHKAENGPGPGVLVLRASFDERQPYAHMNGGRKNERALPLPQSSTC

Target: T1, Tescalcin (human (endogenous in A549)) (UniProt Q96BS2)
T1 sequence: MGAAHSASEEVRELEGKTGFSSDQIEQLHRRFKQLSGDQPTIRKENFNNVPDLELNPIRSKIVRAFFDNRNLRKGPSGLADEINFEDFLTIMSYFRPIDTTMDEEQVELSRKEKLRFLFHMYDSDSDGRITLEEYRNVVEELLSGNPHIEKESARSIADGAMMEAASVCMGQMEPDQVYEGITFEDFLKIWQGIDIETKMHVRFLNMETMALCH
Assay: co-IP; endogenous proteins in A549 cells; NP-40 lysis buffer with protease inhibitors; lysate incubated with antibody against TESC or c-Src overnight at 4 °C, protein A/G agarose beads 4 h, three washes, immunoblot; c-Src/IGF1Rβ also in cells treated with TESC siRNA

binding	Substance
no binding	focal adhesion kinase (from UniProt Q05397 1-1052) (enzyme)
binds	insulin-like growth factor 1 receptor β (from UniProt P08069 741-1367)
